According to paper PMC6896172, “Successful Targeting of the Warburg Effect in Prostate Cancer by Glucose-Conjugated 1,4-Naphthoquinones” (Cancers, 2019):
This continues a long series; more values of the same kind are listed elsewhere.

System: 22Rv1 cells
Experiment: Global proteome analysis (LC-MS/MS, DIA) of differentially expressed proteins
Assay type: cell-based, human
Procedure: 22Rv1 cells were seeded in T75 culture bottles (4 × 10^6 cells/bottle in 20 mL/bottle), treated for 48 h with the 5 µM of compound 11 or vehicle (DMSO), harvested by scratching, washed twice with ice-cold PBS and flash-frozen. Cells were lysed and sonicated. The protein extracts were then heat-denaturated, reduced, alkylated and digested by trypsin. Peptides were chromatographically separated using full recovery autosampler vials and a nano-UPLC system (Acquity, Waters Corporation, Milford, MS, USA), coupled via electrospray ionization (ESI) to a tandem mass spectrometer equipped with a quadrupole and an orbitrap (QExactive, Thermo Fisher Scientific, Bremen, Germany), using MS/MS mode in data dependent acquisition (DDA) and data independent acquisition (DIA). The peptides, analyzed with DDA-LC-MS/MS, were identified with the search engine Sequest, integrated in the Proteome Discoverer software version 2.0 (Thermo Fischer Scientific) using the human Uniprot protein database (EMBL; Hinxton Cambridge, UK, release December 2018). […] For the details of sample preparation and proceeding, data acquisition and analysis see the Supplementary information. […]
serum (FBS, Invitrogen) and 1% penicillin/streptomycin (Invitrogen)). […]
Cell lines were lysed in 100 mM triethylammonium bicarbonate and 1% w/v sodium deoxycholate buffer followed by probe sonication to destroy polynucleotides and heat induce protein denaturing at 99 °C for 5 min. Protein concentrations were estimated with a bicinchonic acid (BCA) protein assay (Thermo Fisher Scientific, Bremen, Germany). 20 µg of protein were reduced in presence of 10 mM dithiotreithol (Sigma Aldrich) for 30 min at 60 °C followed by cysteine alkylation with 20 mM iodo acetamide (Sigma Aldrich) for 30 min at 37 °C in the dark and enzymatic degradation with sequencing grade trypsin (Promega) over night at 37 °C. Digestion was quenched with 1% formic acid (FA), precipitated sodium deoxycholate removed by centrifugation for 5 min at 14,000 g and the supernatant was dried in a vacuum centrifuge.
LC-MS/MS in Data Dependent and Data Independent Mode
Samples were resuspended in 0.1% FA and transferred into a full recovery autosampler vial (Waters). Chromatographic separation was achieved on a nano -UPLC system (Acquity, Waters Corporation, Milford, MS, USA) with a two-buffer-system (buffer A: 0.1% FA in water, buffer B:
0.1% FA in Acetonitrile (ACN), both at pH = 3). Attached to the UPLC was a reversed -phase peptide trapping column (Symmetry C18, 180 µm × 20 mm, 100 Å pore size, 5 µm particle size) for desalting, followed by a reversed-phase capillary separation of the tryptic peptides (BEH C18; 75 µm × 200 mm, 130 Å pore size, 1.7 µm particle size), using a 60 min gradient with increasing ACN concentration from 2–30% ACN. The eluting peptides were analyzed on a quadrupole-orbitrap mass spectrometer (QExactive, Thermo Fisher Scientific, Bremen, Germany) in data dependent acquisition (DDA) and data independent acquisition (DIA) for quantification.
In DDA mode, one replicate of each cell line was randomly chosen and 1 µg per sample was used per LC-MS/MS run to build a reference spectral library used for data extraction of samples acquired in DIA mode. For DDA, the 12 most intense ions per precursor scan (1 × 10 6 ions, 70,000 Resolution, 120 ms fill time) were analyzed by MS/MS (HCD at 25 normalized collision energy, 1 × 105 ions, 17,500 Resolution, 50 ms fill time) in a range of 400–1300 m/z. A dynamic precursor exclusion of 20 s was used. For DIA, 1 µg of each sample was analyzed using a 30 sequential 20 Da fixed window method covering the mass range from 400 –1000 m/z. Per cycle, 2 precursor scans (1 × […]
28 normalized collision energy, 1 × 106 ions, 17,500 Resolution, 50 ms fill time) were performed.
After the first precursor scan, 15 MS/MS scans were performed covering the precursor mass range from 400–700 m/z followed by the second precursor scan and another 15 MS/MS scans ranging from […]
LC-MS/MS Data Processing and Analysis […]

## CC1(C)OC2OC(C(O)COC3=CC(=O)c4cccc(O)c4C3=O)C(O)C2O1 (stereo not drawn) [Compound 11]
Protein ETFB_HUMAN (P38117)
  Fold change (treated / control): 0.8554
Protein F111B_HUMAN (Q6SJ93)
  Fold change (treated / control): 0.3955
Protein FABD_HUMAN (Q8IVS2)
  Fold change (treated / control): 0.6979
Protein FAKD4_HUMAN (Q969Z0)
  Fold change (treated / control): 0.7242
Protein FAS_HUMAN (P49327)
  Fold change (treated / control): 0.6765
Protein FLOT2_HUMAN (Q14254)
  Fold change (treated / control): 0.7567
Protein G3BP1_HUMAN (Q13283)
  Fold change (treated / control): 0.8044
Protein GCDH_HUMAN (Q92947)
  Fold change (treated / control): 0.7269
Protein GHC1_HUMAN (Q9H936)
  Fold change (treated / control): 0.7861
Protein GL8D1_HUMAN (Q68CQ7)
  Fold change (treated / control): 0.6726
Protein GLYC_HUMAN (P34896)
  Fold change (treated / control): 0.7075
Protein GLYR1_HUMAN (Q49A26)
  Fold change (treated / control): 0.5273
Protein GTF2I_HUMAN (P78347)
  Fold change (treated / control): 0.691
Protein GTPB6_HUMAN (O43824)
  Fold change (treated / control): 0.5255
Protein GUAA_HUMAN (P49915)
  Fold change (treated / control): 0.7668
Protein H4_HUMAN (P62805)
  Fold change (treated / control): 0.5561
Protein HDHD5_HUMAN (Q9BXW7)
  Fold change (treated / control): 0.4429
Protein HEM6_HUMAN (P36551)
  Fold change (treated / control): 0.7705
Protein HIC2_HUMAN (Q96JB3)
  Fold change (treated / control): 0.3552
Protein HMGB2_HUMAN (P26583)
  Fold change (treated / control): 0.8616
Protein HNRH1_HUMAN (P31943)
  Fold change (treated / control): 0.7863
Protein HP1B3_HUMAN (Q5SSJ5)
  Fold change (treated / control): 0.7171
Protein HPBP1_HUMAN (Q9NZL4)
  Fold change (treated / control): 0.344
Protein IDH3A_HUMAN (P50213)
  Fold change (treated / control): 0.7993
Protein IDHP_HUMAN (P48735)
  Fold change (treated / control): 0.8606
Protein IF2G_HUMAN (P41091)
  Fold change (treated / control): 0.7409
Protein IPO4_HUMAN (Q8TEX9)
  Fold change (treated / control): 0.5203
Protein K2C7_HUMAN (P08729)
  Fold change (treated / control): 0.6774
Protein KAD2_HUMAN (P54819)
  Fold change (treated / control): 0.8046
Protein KAP0_HUMAN (P10644)
  Fold change (treated / control): 0.721
Protein KDM2A_HUMAN (Q9Y2K7)
  Fold change (treated / control): 0.3972
Protein KIF4A_HUMAN (O95239)
  Fold change (treated / control): 0.5585
Protein KITH_HUMAN (P04183)
  Fold change (treated / control): 0.3876
Protein LARP4_HUMAN (Q71RC2)
  Fold change (treated / control): 0.5045
Protein LMAN2_HUMAN (Q12907)
  Fold change (treated / control): 0.7375
Protein LMNB1_HUMAN (P20700)
  Fold change (treated / control): 0.8148
Protein MA1A2_HUMAN (O60476)
  Fold change (treated / control): 0.3448
Protein MAGT1_HUMAN (Q9H0U3)
  Fold change (treated / control): 0.4348
Protein MBB1A_HUMAN (Q9BQG0)
  Fold change (treated / control): 0.4544
Protein MBD1_HUMAN (Q9UIS9)
  Fold change (treated / control): 0.3439
Protein MBOA7_HUMAN (Q96N66)
  Fold change (treated / control): 0.7651
Protein MCCB_HUMAN (Q9HCC0)
  Fold change (treated / control): 0.8303
Protein MCM2_HUMAN (P49736)
  Fold change (treated / control): 0.5572
Protein MCP_HUMAN (P15529)
  Fold change (treated / control): 0.1636
Protein MET7A_HUMAN (Q9H8H3)
  Fold change (treated / control): 0.7217
Protein MIEN1_HUMAN (Q9BRT3)
  Fold change (treated / control): 0.6775
Protein MMSA_HUMAN (Q02252)
  Fold change (treated / control): 0.7267
Protein MOFA1_HUMAN (Q9Y605)
  Fold change (treated / control): 0.5421
Protein MPPA_HUMAN (Q10713)
  Fold change (treated / control): 0.8249
Protein MPPB_HUMAN (O75439)
  Fold change (treated / control): 0.7358
Protein MYCBP_HUMAN (Q99417)
  Fold change (treated / control): 0.6859
Protein MZT1_HUMAN (Q08AG7)
  Fold change (treated / control): 0.7035
Protein NASP_HUMAN (P49321)
  Fold change (treated / control): 0.7313
Protein NDUA2_HUMAN (O43678)
  Fold change (treated / control): 0.4769
Protein NDUA4_HUMAN (O00483)
  Fold change (treated / control): 0.4541
Protein NDUA9_HUMAN (Q16795)
  Fold change (treated / control): 0.7923
Protein NDUAD_HUMAN (Q9P0J0)
  Fold change (treated / control): 0.7567
Protein NDUB4_HUMAN (O95168)
  Fold change (treated / control): 0.7762
Protein NDUB8_HUMAN (O95169)
  Fold change (treated / control): 0.7141
Protein NDUBA_HUMAN (O96000)
  Fold change (treated / control): 0.7553
Protein NDUS1_HUMAN (P28331)
  Fold change (treated / control): 0.5206
Protein NDUS2_HUMAN (O75306)
  Fold change (treated / control): 0.6782
Protein NDUS8_HUMAN (O00217)
  Fold change (treated / control): 0.6991
Protein NEP1_HUMAN (Q92979)
  Fold change (treated / control): 0.7224
Protein NNTM_HUMAN (Q13423)
  Fold change (treated / control): 0.849
Protein NOG1_HUMAN (Q9BZE4)
  Fold change (treated / control): 0.5546
Protein NOP2_HUMAN (P46087)
  Fold change (treated / control): 0.8208
Protein NOP56_HUMAN (O00567)
  Fold change (treated / control): 0.7231
Protein NPM3_HUMAN (O75607)
  Fold change (treated / control): 0.7477
Protein NSA2_HUMAN (O95478)
  Fold change (treated / control): 0.4343
Protein NU107_HUMAN (P57740)
  Fold change (treated / control): 0.7773
Protein NUCG_HUMAN (Q14249)
  Fold change (treated / control): 0.1894
Protein NUP50_HUMAN (Q9UKX7)
  Fold change (treated / control): 0.8004
Protein NUPL2_HUMAN (O15504)
  Fold change (treated / control): 0.7328
Protein ODPX_HUMAN (O00330)
  Fold change (treated / control): 0.7973
Protein P5CR2_HUMAN (Q96C36)
  Fold change (treated / control): 0.455
Protein P5CS_HUMAN (P54886)
  Fold change (treated / control): 0.7381
Protein P66B_HUMAN (Q8WXI9)
  Fold change (treated / control): 0.6724
Protein PABP1_HUMAN (P11940)
  Fold change (treated / control): 0.8395
Protein PAIRB_HUMAN (Q8NC51)
  Fold change (treated / control): 0.6802
Protein PARP1_HUMAN (P09874)
  Fold change (treated / control): 0.852
Protein PB1_HUMAN (Q86U86)
  Fold change (treated / control): 0.6737
Protein PCBP1_HUMAN (Q15365)
  Fold change (treated / control): 0.8148
Protein PCBP2_HUMAN (Q15366)
  Fold change (treated / control): 0.6786
Protein PDIA4_HUMAN (P13667)
  Fold change (treated / control): 0.8249
Protein PDIP3_HUMAN (Q9BY77)
  Fold change (treated / control): 0.4965
Protein PDXD1_HUMAN (Q6P996)
  Fold change (treated / control): 0.6923
Protein PESC_HUMAN (O00541)
  Fold change (treated / control): 0.4845
Protein PHF5A_HUMAN (Q7RTV0)
  Fold change (treated / control): 0.3475
Protein PIN1_HUMAN (Q13526)
  Fold change (treated / control): 0.8459
Protein PLAK_HUMAN (P14923)
  Fold change (treated / control): 0.7459
Protein PLEC_HUMAN (Q15149)
  Fold change (treated / control): 0.7645
Protein PLPP6_HUMAN (Q8IY26)
  Fold change (treated / control): 0.6855
Protein PMYT1_HUMAN (Q99640)
  Fold change (treated / control): 0.2195
Protein PNPT1_HUMAN (Q8TCS8)
  Fold change (treated / control): 0.8319
Protein PO210_HUMAN (Q8TEM1)
  Fold change (treated / control): 0.7212
Protein PPIC_HUMAN (P45877)
  Fold change (treated / control): 0.8138
Protein PR38A_HUMAN (Q8NAV1)
  Fold change (treated / control): 0.7148
Protein PRKDC_HUMAN (P78527)
  Fold change (treated / control): 0.7563
Protein PRP19_HUMAN (Q9UMS4)
  Fold change (treated / control): 0.7043
Protein PRP31_HUMAN (Q8WWY3)
  Fold change (treated / control): 0.7933
Protein PSPC1_HUMAN (Q8WXF1)
  Fold change (treated / control): 0.7106
